At least one compound was matched to its structure with a doubt left.
System: C57BL/6 mice
Assay: Survival of mice at a lethal dose (10 Gy whole body irradiation) after intraperitoneal medicament
Assay type: in vivo, mouse
Excerpt: 1.2.2 Experiment for Verifying the Survival Rate of Mice at a Lethal Dose
Mice were subjected to 10 Gy whole body irradiation with an X-ray biological irradiator in Department of Medicine having a dose rate of 1.5 Gy/min; and before irradiation, mice were intraperitoneally injected the medicament screened out via an in vitro experiment, and then continuously raised in a temporary storage room of the animal center after irradiation.
4 to 6 week-age C57BL/6 mice were selected as experimental subjects, and divided into control groups and experimental groups, and subjected to 10 Gy whole body irradiation with a dose rate of 1.5 Gy/min; mice in the experimental subjects were respectively intraperitoneally injected the medicaments screened half an hour before irradiation, and the survival time was recorded after irradiation. Among the medicaments, water-soluble Don-H, Pra-C and DL-Pan are dissolved by normal saline, and others were dissolved by 5 g/100 mL DMSO+edible oil. The medicament was prepared into a stock solution having a corresponding concentration according to the volume that 20 g mice were intraperitoneally injected 100 μL medicament.

Which results are given for `C[n+]1ccccc1/C=N/O` [Pralidoxime chloride]?
survival time of the mice (50 mg/kg i.p. half an hour before 10 Gy whole body irradiation): did not improve the survival time; survival time of the mice (100 mg/kg i.p. half an hour before 10 Gy whole body irradiation): did not improve the survival time

From patent publication US11759445B2, “Use of Rivastigmine in preparation of anti-radiation medicament” (priority 2020, dated 2023)
